PubChem BioAssay AID686943 | Drosophila RNAi Screening Center – 2013
Screen: 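Knockdowns that increase or decrease active ERK after insulin receptor stimulation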 (primary screen). Cell system: Drosophila S2R+ haemocyte-like cells expressing YFP-tagged ERK (Rolled). Reagents: long dsRNA against Drosophila genes. Challenge: insulin stimulation versus unstimulated cells; dose and duration not given. Measurement: 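Per-plate z-scores of phospho-ERK immunostaining normalised to YFP-tagged ERK, measured with and without insulin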. Reading the numbers: replicate 1, z-score of dpERK with insulin and replicate 2, z-score of dpERK with insulin: higher = more active ERK per ERK-YFP after insulin.
The deposit covers about 23,000 reagents; below is a random part of those with a known target gene and a result. 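Extra replicates exist only for a retested subset of genes; insulin dose and duration not given; both raised and lowered dpERK matter.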 Further read-outs or replicates are left out here. No sequences are given here. The record does not give: the amount of reagent, the time to read-out.

The opening 2 records as a preview:
MBD-like (GeneID 41151) [DRSC16996]: replicate 1, z-score of dpERK with insulin = -0.74; replicate 2, z-score of dpERK with insulin = -0.14
cno (GeneID 40620) [DRSC12054]: replicate 1, z-score of dpERK with insulin = -1.25; replicate 2, z-score of dpERK with insulin = 0.01

The list itself, from the first entry:
MBD-like (GeneID 41151) [DRSC16996]: replicate 1, z-score of dpERK with insulin = -0.74; replicate 2, z-score of dpERK with insulin = -0.14
cno (GeneID 40620) [DRSC12054]: replicate 1, z-score of dpERK with insulin = -1.25; replicate 2, z-score of dpERK with insulin = 0.01
cno (GeneID 40620) [DRSC12374]: replicate 1, z-score of dpERK with insulin = -1.45; replicate 2, z-score of dpERK with insulin = -1.54
bard (GeneID 42161) [DRSC14796]: replicate 1, z-score of dpERK with insulin = 0.3; replicate 2, z-score of dpERK with insulin = -0.05
CG14154 (GeneID 39207) [DRSC10156]: replicate 1, z-score of dpERK with insulin = -0.6; replicate 2, z-score of dpERK with insulin = -0.15
CG42525 (GeneID 8674097) [DRSC08026]: replicate 1, z-score of dpERK with insulin = -0.16; replicate 2, z-score of dpERK with insulin = 0.41
beta-Man (GeneID 40524) [DRSC12208]: replicate 1, z-score of dpERK with insulin = -0.05; replicate 2, z-score of dpERK with insulin = -0.14
beta-Man (GeneID 40524) [DRSC12209]: replicate 1, z-score of dpERK with insulin = -0.07; replicate 2, z-score of dpERK with insulin = 0.42
CG18814 (GeneID 59175) [DRSC10347]: replicate 1, z-score of dpERK with insulin = 0.73; replicate 2, z-score of dpERK with insulin = -0.22
SdhA (GeneID 37228) [DRSC07547]: replicate 1, z-score of dpERK with insulin = 0.46; replicate 2, z-score of dpERK with insulin = 0.1
sbb (GeneID 44027) [DRSC05723]: replicate 1, z-score of dpERK with insulin = 0.57; replicate 2, z-score of dpERK with insulin = 0.32
sbb (GeneID 44027) [DRSC07676]: replicate 1, z-score of dpERK with insulin = -0.26; replicate 2, z-score of dpERK with insulin = 0.25
CG30156 (GeneID 246488) [DRSC04959]: replicate 1, z-score of dpERK with insulin = -0.18; replicate 2, z-score of dpERK with insulin = -0.01
ppk9 (GeneID 37498) [DRSC04134]: replicate 1, z-score of dpERK with insulin = -0.16; replicate 2, z-score of dpERK with insulin = 0.35
ppk9 (GeneID 37498) [DRSC04135]: replicate 1, z-score of dpERK with insulin = -1.85; replicate 2, z-score of dpERK with insulin = -1.62
CG14851 (GeneID 41763) [DRSC14975]: replicate 1, z-score of dpERK with insulin = 0.69; replicate 2, z-score of dpERK with insulin = -1.32
CG14851 (GeneID 41763) [DRSC21500]: replicate 1, z-score of dpERK with insulin = -0.42; replicate 2, z-score of dpERK with insulin = 1.31
CG7707 (GeneID 39923) [DRSC10903]: replicate 1, z-score of dpERK with insulin = 0.87; replicate 2, z-score of dpERK with insulin = 0.11
nmo (GeneID 38890) [DRSC08902]: replicate 1, z-score of dpERK with insulin = 0.47; replicate 2, z-score of dpERK with insulin = 0.39
nmo (GeneID 38890) [DRSC11377]: replicate 1, z-score of dpERK with insulin = -1.52; replicate 2, z-score of dpERK with insulin = -1.13
CG42272 (GeneID 318020) [DRSC08766]: replicate 1, z-score of dpERK with insulin = -0.04; replicate 2, z-score of dpERK with insulin = 0.03
CG42272 (GeneID 318020) [DRSC22502]: replicate 1, z-score of dpERK with insulin = -2.12; replicate 2, z-score of dpERK with insulin = -2.52
CG14684 (GeneID 41281) [DRSC14907]: replicate 1, z-score of dpERK with insulin = 0.61; replicate 2, z-score of dpERK with insulin = 0.56
Gr64f (GeneID 117477) [DRSC08447]: replicate 1, z-score of dpERK with insulin = 0.66; replicate 2, z-score of dpERK with insulin = 0.15
Gabat (GeneID 40188) [DRSC10846]: replicate 1, z-score of dpERK with insulin = 0.2; replicate 2, z-score of dpERK with insulin = -0.57
CG6403 (GeneID 43220) [DRSC16033]: replicate 1, z-score of dpERK with insulin = 0.71; replicate 2, z-score of dpERK with insulin = 0.09
CR12798 (GeneID 10178819) [DRSC21078]: replicate 1, z-score of dpERK with insulin = 0.16; replicate 2, z-score of dpERK with insulin = -0.26
Jhbp11 (GeneID 43263) [DRSC15183]: replicate 1, z-score of dpERK with insulin = 0.06; replicate 2, z-score of dpERK with insulin = -0.09
CG12123 (GeneID 31777) [DRSC17818]: replicate 1, z-score of dpERK with insulin = 0.02; replicate 2, z-score of dpERK with insulin = 0.06
VhaPPA1-1 (GeneID 45247) [DRSC16170]: replicate 1, z-score of dpERK with insulin = 1.44; replicate 2, z-score of dpERK with insulin = -0.12
Arpc2 (GeneID 35311) [DRSC02113]: replicate 1, z-score of dpERK with insulin = -1.75; replicate 2, z-score of dpERK with insulin = -1.39
Mst98Ca (GeneID 47854) [DRSC16749]: replicate 1, z-score of dpERK with insulin = 0.37; replicate 2, z-score of dpERK with insulin = 0.69
CG9391 (GeneID 40346) [DRSC11858]: replicate 1, z-score of dpERK with insulin = -0.2; replicate 2, z-score of dpERK with insulin = -0.36
TTLL3B (GeneID 33946) [DRSC02133]: replicate 1, z-score of dpERK with insulin = 2.59; replicate 2, z-score of dpERK with insulin = 1.75
Rac1 (GeneID 38146) [DRSC08688]: replicate 1, z-score of dpERK with insulin = -5.06; replicate 2, z-score of dpERK with insulin = -3.74
ebo (GeneID 47141) [DRSC18787]: replicate 1, z-score of dpERK with insulin = 0.9; replicate 2, z-score of dpERK with insulin = 0.35
CG14070 (GeneID 34508) [DRSC02373]: replicate 1, z-score of dpERK with insulin = 0.56; replicate 2, z-score of dpERK with insulin = 0.26
Wnt6 (GeneID 34010) [DRSC02795]: replicate 1, z-score of dpERK with insulin = -0.06; replicate 2, z-score of dpERK with insulin = -0.2
RpS12 (GeneID 39480) [DRSC11270]: replicate 1, z-score of dpERK with insulin = -3.99; replicate 2, z-score of dpERK with insulin = -0.42
nab (GeneID 3346237) [DRSC08455]: replicate 1, z-score of dpERK with insulin = 0.25; replicate 2, z-score of dpERK with insulin = -0.02
nab (GeneID 3346237) [DRSC08456]: replicate 1, z-score of dpERK with insulin = -0.04; replicate 2, z-score of dpERK with insulin = -0.51
